# Most entries show no effect beyond the scatter of the controls.
# Assays:
# Test in all cases: normalised response (% of control), CellTox Green; higher = less cell death (100 = DMSO, 0 = benzethonium chloride kill control)
# Details in all cases: incubation time: 72 h
# HCC1599 = test system: HCC1599
# Protocol: (§1)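 DSRT, 72 h incubation, CellTox Green / CellTiter-Glo readout. Signal is normalised to DMSO and benzethonium chloride controls. Value is the normalised response at dose 2.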
# CAL-120 = test system: CAL-120
# Protocol: as §1
# MDA-MB-231 = test system: MDA-MB-231
# Protocol: as §1
# CAL-85-1 = test system: CAL-85-1
# Protocol: as §1
# CAL-51 = test system: CAL-51
# Protocol: as §1
# DU-4475 = test system: DU-4475
# Protocol: as §1
# CAL-148 = test system: CAL-148
# Protocol: as §1
# BT-474 = test system: BT-474
# Protocol: as §1
# BT-549 = test system: BT-549
# Protocol: as §1
# Hs578T = test system: Hs578T
# Protocol: as §1
# MDA-MB-436 = test system: MDA-MB-436
# Protocol: as §1
# MCF-10A = test system: MCF-10A
# Protocol: as §1
# MFM-223 = test system: MFM-223
# Protocol: as §1
# MDA-MB-453 = test system: MDA-MB-453
# Protocol: as §1
# HDQ-P1 = test system: HDQ-P1
# Protocol: as §1
# HCC1937 = test system: HCC1937
# Protocol: as §1
# HCC1143 = test system: HCC1143
# Protocol: as §1
# MDA-MB-468 = test system: MDA-MB-468
# Protocol: as §1
Structure (SMILES),normalised response (HCC1599),normalised response (CAL-120),normalised response (MDA-MB-231),normalised response (CAL-85-1),normalised response (CAL-51),normalised response (DU-4475),normalised response (CAL-148),normalised response (BT-474),normalised response (BT-549),normalised response (Hs578T),normalised response (MDA-MB-436),normalised response (MCF-10A),normalised response (MFM-223),normalised response (MDA-MB-453),normalised response (HDQ-P1),normalised response (HCC1937),normalised response (HCC1143),normalised response (MDA-MB-468)
Oc1ncnc2[nH]ncc12 [Allopurinol] (10 nM),113%,87.2%,100%,92.6%,92.2%,104%,106%,98.7%,99%,66.9%,104%,66.8%,103%,94.8%,118%,97.4%,110%,–
C=C(c1ccc(C(=O)O)cc1)c1cc2c(cc1C)C(C)(C)CCC2(C)C [Bexarotene] (10 nM),107%,95.8%,87.5%,95.5%,110%,104%,–,99.3%,104%,117%,103%,77.1%,102%,108%,–,89.5%,54.4%,84.3%
Cc1cc2c(F)c(Oc3ncnn4cc(OC[C@@H](C)O)c(C)c34)ccc2[nH]1 [Brivanib] (1 nM),110%,104%,105%,91.7%,97.3%,106%,106%,105%,98.7%,83.8%,99.7%,111%,77.8%,101%,114%,–,106%,95.4%
Cc1ccc(NC(=O)c2ccc(CN3CCN(C)CC3)cc2)cc1Nc1nccc(-c2cccnc2)n1 [Imatinib] (10 nM),113%,101%,103%,104%,102%,107%,105%,102%,79.1%,111%,108%,99.5%,103%,105%,–,91.2%,111%,108%
c1ccc([C@H]2CN3CCSC3=N2)cc1 [Levamisole] (10 nM),105%,104%,110%,98.8%,78.9%,100%,–,101%,114%,–,92.1%,108%,67.9%,97.2%,95.2%,111%,106%,64.3%
CC(=O)O[C@]1(C(C)=O)CC[C@H]2[C@@H]3C=C(C)C4=CC(=O)CC[C@]4(C)[C@H]3CC[C@@]21C [Megestrol acetate] (10 nM),96.8%,99.3%,–,85.3%,77.6%,96.8%,105%,97.5%,–,114%,68.2%,64.9%,100%,74.2%,–,112%,–,85.2%
CO[C@H](C(=O)[C@@H](O)[C@@H](C)O)[C@@H]1Cc2cc3cc(O[C@H]4C[C@@H](O[C@@H]5C[C@@H](O)[C@H](O)[C@@H](C)O5)[C@H](O)[C@@H](C)O4)c(C)c(O)c3c(O)c2C(=O)[C@H]1O[C@H]1C[C@@H](O[C@@H]2C[C@@H](O)[C@@H](O[C@@H]3C[C@](C)(O)[C@H](O)[C@@H](C)O3)[C@@H](C)O2)[C@H](O)[C@@H](C)O1 [Plicamycin] (10 nM),112%,104%,106%,104%,79.1%,108%,99.9%,102%,91.6%,110%,113%,109%,93.2%,103%,117%,64%,121%,–
CC(C)N(CCCNC(=O)Nc1ccc(C(C)(C)C)cc1)C[C@H]1O[C@@H](n2cc(Br)c3c(N)ncnc32)[C@H](O)[C@@H]1O [SGC0946] (10 nM),100%,96.2%,83.2%,103%,101%,92%,103%,99.6%,73.4%,97.2%,76.6%,86.9%,101%,82.5%,90.2%,111%,68.5%,–
CN1CCN(c2nc(C3=C(c4c[nH]c5ccccc45)C(=O)NC3=O)c3ccccc3n2)CC1 [Sotrastaurin] (10 nM),92.7%,98.4%,69.7%,102%,102%,94.2%,96.1%,100%,100%,–,96.7%,101%,103%,97%,56.2%,60.2%,104%,94.6%
CC(=O)Nc1cccc(-n2c(=O)n(C3CC3)c(=O)c3c(Nc4ccc(I)cc4F)n(C)c(=O)c(C)c32)c1 [Trametinib] (0.25 nM),117%,105%,91.7%,97.3%,111%,112%,97.4%,91.7%,102%,107%,92.5%,105%,103%,111%,–,–,101%,88.2%

# Reference: the supplement of paper PMC4862054
